From PMC11698036, “Borg5 restricts contractility and motility in epithelial MDCK cells” (Journal of Cell Science, 2024)
Read-outs that look alike come from different tables or passages of the source. No constants are given. Whether binding was seen depends on the method and setting. In cells and extracts the contact can be indirect. These calls come from enrichment with a bait or labelling near it, and not all partners need be listed. Tags and fused reporters may be left off the sequences shown.

T1: HALO-tagged WT Borg5 (Borg5-TEV-HALO) (mouse) (UniProt Q91W92)
T1 sequence: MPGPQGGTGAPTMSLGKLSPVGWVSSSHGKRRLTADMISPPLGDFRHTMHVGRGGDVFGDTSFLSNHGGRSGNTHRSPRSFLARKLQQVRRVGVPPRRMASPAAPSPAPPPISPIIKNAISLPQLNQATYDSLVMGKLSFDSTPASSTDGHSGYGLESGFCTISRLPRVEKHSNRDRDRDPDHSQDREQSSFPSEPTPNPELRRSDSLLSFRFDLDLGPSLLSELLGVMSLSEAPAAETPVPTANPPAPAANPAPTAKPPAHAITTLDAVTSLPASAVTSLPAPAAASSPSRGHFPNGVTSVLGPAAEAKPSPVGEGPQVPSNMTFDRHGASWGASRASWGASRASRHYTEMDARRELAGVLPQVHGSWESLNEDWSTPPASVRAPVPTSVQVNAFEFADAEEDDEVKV

B1: ARHGEF2 (endogenous, MDCK) (protein, UniProt Q865S3 1-986)
chain: MSRIESLTRARTERSRELASKNREKEKMKEAKDARYTNGHLFTTISVSGMTMCYACNKSITAKEALICPTCNVTIHNRCKDTLANCTKVKQKQQKAALLKNSTALQSVSLRSKTTPRERPSSAIYPSDSFRQSLLGSRRGRSSLSLAKSVSTTNIAGHFSDESPLGLRRILSQSTDSLNMRNRALSVESLIDEGAEVIYSELMSDFETDERDFAADSWSLAVDSSFLQQQKKEVMKQQDVIYELIQTELHHVRTLKIMTRLFRTGMLEELQLEPGVVQGLFPCVDELSDIHTRFLSQLLERRRQALCPGSTRNFVIHRLADLLISQFSGPSAERMRKAYSEFCSRHTKALKLYKELYARDKRFQQFIRKVTRSAVLKRHGVQECILLVTQRITKYPVLINRILQHSHGTDEERQDLTTALGLVKELLSNVDQDVHELEKGARLQEIYHRMDPRAQAPVPSKGPFGREELLRRKLIHDGCLLWKTATGRFKDVLMLLMTDVLVFLQEKDQKYIFPALDKPSVVSLQNLIVRDIANQEKGMFLISAAPPEMYEVHTASRDDRSTWVRVIQQSVRVCPSREDFPLIETEDEAYLRRIKMELQQKDKALVELLREKVGLFAEMTHFQVEEDSGGVALPALPRGLFRSESLECPRGERLLQDAIREVEGLKDLLVGPGVELLLTPRDPALLVDPDSGGSTSPGVTANGEARNFNGSIELCRTDSDSSQKDRNGNQLRAPQEEALQRLVNLYGLLHGLQAAVAQQDTLMEARFPEGPERREKLARANSRDGEAGRVGPAPVAPDKQATELALLQRQHALLQEELRRCRRLGEERATEAGNLEARLRESEQARALLEREAEEARRQLAILGQSEPPPAEAPWARRPLDPRRRSLPAGDALYLSFTPPQPSRGHDRLDLSVTIRSVHRPFEDRERQELGSPEERLQDSSDPDTGSEEEGGGRLSPPHSPRDFTRMQDIPEETESRDGEPMVSES

What was measured:
[1] = target: T1, HALO-tagged WT Borg5 (Borg5-TEV-HALO) (mouse); experiment: affinity purification with mass spectrometry; Borg5-TEV-HALO captured on HALO-Trap agarose from Triton X-100 lysates of transfected MDCK cells (10 mM Tris-HCl pH 7.5, 150 mM NaCl, 0.5 mM EDTA, 1 mM DTT), 2 h at 4°C, released by TEV protease; mock-transfected cells as control; three experiments
[2] = target: T1, HALO-tagged WT Borg5 (Borg5-TEV-HALO) (mouse); experiment: as above; remark: listed apart in the source

Molecule | binding [1] | binding [2]
septin 9 (endogenous, MDCK) | binds | 
septin 7 (endogenous, MDCK) | binds | 
filamin A (endogenous, MDCK) | binds | 
septin 2 (endogenous, MDCK) | binds | 
α-actinin 1 (endogenous, MDCK) | binds | 
B1 |  | binds
